# Results deposited as PubChem BioAssay AID743121 (NCATS, 2013)
# Aim: 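Partners whose loss is lethal together with topoisomerase I blockade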 (primary screen)
# Cell system: MDA-MB-231 cells, a human breast cancer line
# Reagents: single siRNA against human genes, 20 nM siRNA (0.8 pmol per well)
# Time to read-out: 120 h (drug added 48 h after transfection, read 72 h later)
# Challenge: camptothecin 20 nM (about EC30) for 72 h; vehicle 0.1% DMSO in parallel plates
# Read-out: 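Cell viability by ATP luminescence (CellTiter-Glo) as % of non-targeting siRNA wells, and the log2 ratio of viability without drug over viability with camptothecin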
# Scale: log2 vehicle/camptothecin viability: higher = stronger sensitisation to camptothecin
# Active means: 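Active genes have an RSA gene-level p-value below 0.001, computed from the ratios of their separate siRNAs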
# This is one part, drawn at random, of about 26,000 deposited reagents. 167 of all reagents (0.63%) were called active. 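Calls are per gene from RSA p-values that are not deposited; an individual active-marked siRNA can sensitise only weakly.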 Entries without a mark were called inactive. Reagents against one gene are numbered here. Further read-outs or replicates are left out here.
Gene,reagent no.,log2 vehicle/camptothecin viability
MRGPRF (MAS related GPR family member F),1,-0.283
MRGPRF (MAS related GPR family member F),2,0.104
MRGPRF (MAS related GPR family member F),3,-0.415
MRGPRF (MAS related GPR family member F),4,0.262
MX2 (MX dynamin like GTPase 2),1,-0.359
MX2 (MX dynamin like GTPase 2),2,-0.104
MX2 (MX dynamin like GTPase 2),3,-0.246
MX2 (MX dynamin like GTPase 2),4,-0.27
CPA3 (carboxypeptidase A3),1,0.00648
CPA3 (carboxypeptidase A3),2,-0.387
CPA3 (carboxypeptidase A3),3,-0.104
CPA3 (carboxypeptidase A3),4,-0.288
FBXL14 (F-box and leucine rich repeat protein 14),1,-0.138
FBXL14 (F-box and leucine rich repeat protein 14),2,-0.078
FBXL14 (F-box and leucine rich repeat protein 14),3,-0.161
FBXL14 (F-box and leucine rich repeat protein 14),4,0.0958
NKX3-1 (NK3 homeobox 1),1,-0.188
NKX3-1 (NK3 homeobox 1),2,-0.444
NKX3-1 (NK3 homeobox 1),3,-0.275
NKX3-1 (NK3 homeobox 1),4,-0.552

Copied from the list.
NKX3-1 (NK3 homeobox 1) #3, log2 vehicle/camptothecin viability: -0.275
For “log2 vehicle/camptothecin viability”, MRGPRF (MAS related GPR family member F) #4 is entered as 0.262
Under “log2 vehicle/camptothecin viability”, NKX3-1 (NK3 homeobox 1) #2 reads -0.444

Continued:
Gene,reagent no.,log2 vehicle/camptothecin viability
OR10H5 (olfactory receptor family 10 subfamily H member 5),1,-0.369
OR10H5 (olfactory receptor family 10 subfamily H member 5),2,0.0314
OR10H5 (olfactory receptor family 10 subfamily H member 5),3,0.0606
HCFC1R1 (host cell factor C1 regulator 1),1,-0.233
HCFC1R1 (host cell factor C1 regulator 1),2,0.174
HCFC1R1 (host cell factor C1 regulator 1),3,-0.4
CD5L (CD5 molecule like),1,0.387
CD5L (CD5 molecule like),2,0.497
CD5L (CD5 molecule like),3,-0.392
CD5L (CD5 molecule like),4,-0.498
